The campaign covered roughly 220,000 compounds. About 770 (0.35%) were called active. The inconclusive results got no clear call from the source; some entries with a clear call stand among them for comparison. Cut-off read from the data, not from the text of the source: active = binding response below about 49% or above about 150%; inconclusive = no clear call, values can overlap the other calls; inactive = in between.
What follows are molecules tested against Guanine nucleotide-binding protein G(o) subunit alpha (Homo sapiens) (UniProt P09471) (assay: RGS7-Galphao binding modulators, primary screen, biochemical, multiplexed bead flow cytometry (AID 1439;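 note: fluorescent Galphao held in activated GDP-AlF4 state binding bead-coupled RGS7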)). Conditions: at 10 µM, actives lie on both sides.

By UniProt entry, the sequences of proteins in these tests, tags left out.
UniProt P09471, whole entry, looked up: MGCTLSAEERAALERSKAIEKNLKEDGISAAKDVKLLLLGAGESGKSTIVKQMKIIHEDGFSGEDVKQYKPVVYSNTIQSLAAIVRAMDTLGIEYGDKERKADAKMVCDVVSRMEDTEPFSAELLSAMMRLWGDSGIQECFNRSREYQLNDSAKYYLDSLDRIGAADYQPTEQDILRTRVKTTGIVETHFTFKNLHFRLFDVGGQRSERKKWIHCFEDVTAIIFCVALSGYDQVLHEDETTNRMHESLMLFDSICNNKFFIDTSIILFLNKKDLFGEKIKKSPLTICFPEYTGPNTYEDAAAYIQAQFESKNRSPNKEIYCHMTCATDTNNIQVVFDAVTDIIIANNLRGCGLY

Question: How did the binding response (% of control) turn out when O=c1c2c3c(sc2nc2n1CCC2)CCCC3 was run?
Answer: inconclusive: 110%

Question: With Cc1cc(/C=C2\NC(=O)NC2=O)c(C)n1-c1ccc(N2CCOCC2)cc1 as the molecule, how does the binding response (% of control) read?
Answer: inconclusive: -73.9%

Question: For COc1cc(OC)c2c(-c3ccccc3)cc(=O)oc2c1C(CCN1CCCC(C)C1)c1ccc(N(C)C)cc1 (stereo unspecified), which binding response (% of control) is on record?
Answer: inconclusive: 109%

Question: How did the binding response (% of control) turn out when FC(F)(F)c1ccc(CN2C[C@@H]3C(c4ccccc4)C4(c5ccccc5)CC3(C4)[C@H]2c2ccccc2)cc1 (stereo partly specified) was run?
Answer: inconclusive: 104%

Question: Cc1ccc(N(C)C(=O)C2CCCN2S(=O)(=O)c2cccc3nsnc23)cc1 (stereo unspecified) was tested. Which binding response (% of control) did it give?
Answer: inconclusive: 95.3%

Question: Which binding response (% of control) does the source give for CC1(C)C2([N+](=O)[O-])CN3CC1([N+](=O)[O-])CN(C2)C3C(O)C(O)C(O)CO (stereo unspecified) here?
Answer: inconclusive: 105%

Question: With Nc1cccc(NP(=O)(c2ccccc2)c2ccccc2)c1 as the molecule, how does the binding response (% of control) read?
Answer: inconclusive: 120%

Question: For O=C(O)c1[nH]c2ccc(Cl)cc2c1CCN1C(=O)c2ccccc2C1=O, which binding response (% of control) is on record?
Answer: inconclusive: 33.9%

Question: How did the binding response (% of control) turn out when CCN1C/C(=C/c2ccc(N3CCOCC3)cc2)C(=O)/C(=C/c2ccc(N3CCOCC3)cc2)C1 was run?
Answer: inactive: 105%

Question: How did the binding response (% of control) turn out when Cc1cc2nc3ccc(=[N+](C)C)cc-3sc2cc1N was run?
Answer: inconclusive: 114%

Question: How did the binding response (% of control) turn out when COC(=O)c1cc(NC(=O)c2cc(-c3ccc(Cl)cc3)oc2C(F)(F)F)ccc1N1CCOCC1 was run?
Answer: inconclusive: 125%

Question: For COC(=O)NNC(=O)c1ccccc1OC, which binding response (% of control) is on record?
Answer: inconclusive: 95.6%

Question: For Clc1ccc(C2CSc3c4ncnc-4ncn32)cc1 (stereo unspecified), which binding response (% of control) is on record?
Answer: inconclusive: 170%

Question: Cc1cc(C)cc(NC(=S)/C(=C(\[O-])c2ccc(Cl)cc2Cl)[n+]2ccc(C(C)(C)C)cc2)c1 was tested. Which binding response (% of control) did it give?
Answer: inconclusive: 50.2%

Question: For N#C/C(=C\c1ccc(-c2cccc([N+](=O)[O-])c2)o1)C(=O)NCCN1CCOCC1, which binding response (% of control) is on record?
Answer: inconclusive: 84.3%

Question: For Cc1nc(Nc2ccccc2)sc1C(=O)c1ccccc1, which binding response (% of control) is on record?
Answer: inconclusive: 72%

Question: For Nc1sc(-c2ccccc2)c(Cc2ccccc2)c1C(=O)O, which binding response (% of control) is on record?
Answer: inactive: 104%

Question: For O=C(O)/C(=C\c1cn(-c2ccccc2)nc1-c1ccc(Cl)cc1)NC(=O)c1ccccc1, which binding response (% of control) is on record?
Answer: inconclusive: 75.1%

Question: O=C(CCCNC(=O)c1ccc(Cl)cc1)Nc1ccc(S(=O)(=O)Nc2ncccn2)cc1 was tested. Which binding response (% of control) did it give?
Answer: inconclusive: 85.2%

Question: COc1ccccc1-[n+]1c(C)cc(/C=C2\Sc3ccccc3N2C)cc1C was tested. Which binding response (% of control) did it give?
Answer: inconclusive: 155%

Question: With O=C(CCSc1ccccc1)NC(=O)COC(=O)c1ccc(OC(F)F)cc1 as the molecule, how does the binding response (% of control) read?
Answer: inactive: 95.6%

Question: How did the binding response (% of control) turn out when CCc1ccccc1NNC(=O)CCc1ccccc1 was run?
Answer: inconclusive: 114%

Question: How did the binding response (% of control) turn out when Cc1cc(C)c(NC(=O)CO/N=C2\CCCc3nonc32)c(C)c1 was run?
Answer: inactive: 105%

Question: Which binding response (% of control) does the source give for Cc1cccc(-c2n[nH]c(=S)n2/N=C/C=C/c2ccco2)c1 here?
Answer: inconclusive: 150%

Question: O=C(Nc1ccc(Br)cc1)N1CCCC(O)C1 (stereo unspecified) was tested. Which binding response (% of control) did it give?
Answer: inconclusive: 86.1%

Question: With Cc1cc(/C=C2\C(=N)N3N=C(S(C)(=O)=O)SC3=NC2=O)c(C)n1Cc1ccccc1 as the molecule, how does the binding response (% of control) read?
Answer: inconclusive: 49.5%

Question: Which binding response (% of control) does the source give for CCOC(=O)C=C(C(=O)OCC)C(=O)OCC here?
Answer: inactive: 92.8%

Question: CC(=N)c1c(O)c2ccccc2oc1=O was tested. Which binding response (% of control) did it give?
Answer: inconclusive: 81.4%

Question: Cc1ccc(NC(=O)Nc2ccccc2)cc1[N+](=O)[O-] was tested. Which binding response (% of control) did it give?
Answer: inactive: 91.2%

Question: For Cc1c(NC(=O)/C(C#N)=C/c2c(N3CCCCC3)nc3ccccn3c2=O)c(=O)n(-c2ccccc2)n1C, which binding response (% of control) is on record?
Answer: inconclusive: 812%

Question: How did the binding response (% of control) turn out when CC1CCCCC1NC(=O)CSc1ccc([N+](=O)[O-])cc1 (stereo unspecified) was run?
Answer: inconclusive: 93.9%

Question: NC(=O)c1c(NC(=O)COC(=O)c2ccc(S(=O)(=O)Nc3ccccc3)cc2)sc2c1CCCC2 was tested. Which binding response (% of control) did it give?
Answer: inactive: 93.4%

Question: For CC(C)CC(c1nnnn1Cc1ccc(F)cc1)N1CCC(C(N)=O)CC1 (stereo unspecified), which binding response (% of control) is on record?
Answer: inactive: 101%

Question: How did the binding response (% of control) turn out when CS(=O)(=O)N(CC(=O)Nc1cccnc1)c1ccc2c(c1)OCCO2 was run?
Answer: inactive: 101%

Question: Which binding response (% of control) does the source give for O=S(=O)(c1ccccc1C(F)(F)F)N1C=CC(C(F)(F)F)=NCC1 here?
Answer: inconclusive: 216%

Question: For O=c1[nH]c(C2CCCN(S(=O)(=O)c3ccc(F)cc3)C2)nc2c1nnn2Cc1ccccc1 (stereo unspecified), which binding response (% of control) is on record?
Answer: inactive: 105%

Question: With Clc1ccc(COn2ccnc2)cc1Cl as the molecule, how does the binding response (% of control) read?
Answer: inconclusive: 102%

Question: For CSc1cccc(NC(=S)Nc2cc(C)ccc2C)c1, which binding response (% of control) is on record?
Answer: inconclusive: 123%

Question: O=S(=O)(Nc1ccc(Cc2ccncc2)cc1)c1ccc(Br)cc1 was tested. Which binding response (% of control) did it give?
Answer: active: 15%

Question: Which binding response (% of control) does the source give for CC(=O)C1C(=O)CC(c2ccc(Cl)cc2)CC1=O (stereo unspecified) here?
Answer: inconclusive: 90.3%

Question: O=P(c1ccccc1)(c1ccccc1)C(O)c1ccccn1 (stereo unspecified) was tested. Which binding response (% of control) did it give?
Answer: inconclusive: 191%

Question: For FC(F)(F)c1ccc(CN2C[C@@H]3C(c4ccc(Cl)nc4)C4(c5ccccc5)CC3(C4)[C@H]2c2ccccc2)cc1 (stereo partly specified), which binding response (% of control) is on record?
Answer: inconclusive: 94.7%

Question: O=C1CSC2(CCCCC2)N1CCO was tested. Which binding response (% of control) did it give?
Answer: inactive: 95.8%

Question: COc1c(Cl)cc(Cl)cc1C(=O)n1nc(C)cc1C was tested. Which binding response (% of control) did it give?
Answer: inactive: 103%

Question: How did the binding response (% of control) turn out when CN(c1cccc(NC(=O)CN(c2ccc(C34CC5CC(CC(C5)C3)C4)cc2)S(C)(=O)=O)c1)S(C)(=O)=O was run?
Answer: inactive: 105%

Question: How did the binding response (% of control) turn out when CC(=O)Nc1ccc(NC(=O)CCCSc2nc3ccccc3[nH]2)cc1 was run?
Answer: inconclusive: 43.5%
